These are yes or no findings as the source states them, for the method shown. For part of these data: Binding seen in cells or lysates may run through a third protein. Some entries that bind do so weakly or less than the wild type. Where a sequence is shown, tags or fusion partners need not be part of it.

Drawing on article PMC7198045, this text covers binding for two molecules.

The target in assay [1] is T1, GST-tagged VRK1 1–391 mutant (human) (UniProt Q99986).
T1 sequence: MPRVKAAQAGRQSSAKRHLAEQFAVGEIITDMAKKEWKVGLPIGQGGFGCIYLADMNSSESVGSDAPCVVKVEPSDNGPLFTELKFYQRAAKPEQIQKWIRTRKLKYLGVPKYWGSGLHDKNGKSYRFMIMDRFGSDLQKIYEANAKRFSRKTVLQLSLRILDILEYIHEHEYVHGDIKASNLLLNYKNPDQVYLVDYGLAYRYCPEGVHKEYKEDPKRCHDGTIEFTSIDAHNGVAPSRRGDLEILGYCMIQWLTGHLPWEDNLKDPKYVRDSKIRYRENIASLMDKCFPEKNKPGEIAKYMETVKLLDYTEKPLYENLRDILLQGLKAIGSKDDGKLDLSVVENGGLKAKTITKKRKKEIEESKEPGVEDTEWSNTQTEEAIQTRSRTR
Briefly: pull-down; GST or GST-VRK1 bound to glutathione-Sepharose 4B resin incubated with HisSUMO-PKP2; bound proteins by Western blot; both purified. For orientation: Immunoblotting shows a protein as a band on a membrane.

Assay [2] has as its target T2, GST-tagged VRK1-WT (human) (UniProt Q99986).
T2 sequence: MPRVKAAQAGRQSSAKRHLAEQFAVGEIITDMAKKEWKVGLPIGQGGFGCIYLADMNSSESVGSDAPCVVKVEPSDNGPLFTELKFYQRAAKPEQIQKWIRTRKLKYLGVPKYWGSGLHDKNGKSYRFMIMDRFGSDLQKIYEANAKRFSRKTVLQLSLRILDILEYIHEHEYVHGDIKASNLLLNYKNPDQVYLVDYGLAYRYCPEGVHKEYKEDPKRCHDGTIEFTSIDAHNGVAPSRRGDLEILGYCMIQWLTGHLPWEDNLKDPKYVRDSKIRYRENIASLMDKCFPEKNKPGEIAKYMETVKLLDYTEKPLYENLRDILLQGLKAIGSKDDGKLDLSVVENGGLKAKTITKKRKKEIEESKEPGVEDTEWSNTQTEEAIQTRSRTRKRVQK
Described as above.

Assay [3] deals with T3, GFP-tagged full-length VRK1 WT (vaccinia-related kinase 1) (human) (UniProt Q99986).
T3 sequence: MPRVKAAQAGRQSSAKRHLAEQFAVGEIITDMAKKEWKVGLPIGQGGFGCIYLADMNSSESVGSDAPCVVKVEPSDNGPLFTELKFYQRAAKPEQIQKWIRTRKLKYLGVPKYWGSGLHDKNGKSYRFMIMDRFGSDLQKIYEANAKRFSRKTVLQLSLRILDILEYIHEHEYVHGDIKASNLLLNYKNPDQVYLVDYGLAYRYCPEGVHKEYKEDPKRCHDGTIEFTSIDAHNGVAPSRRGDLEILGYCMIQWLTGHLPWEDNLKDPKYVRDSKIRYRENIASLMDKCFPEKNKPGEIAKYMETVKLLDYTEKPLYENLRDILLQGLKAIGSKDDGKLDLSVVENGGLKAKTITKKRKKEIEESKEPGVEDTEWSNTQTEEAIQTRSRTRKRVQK
As to the kind of experiment: co-IP; FLAG-PKP2 co-expressed with GFP-VRK1 or GFP in Huh-7 cells, low (40 mg/dl) or high (140 mg/dl) glucose for 3 h; Co-IP buffer (20 mM Tris-HCl pH 7.5, 500 mM NaCl, 0.5 mM EDTA, 10% glycerol); anti-GFP agarose beads; anti-FLAG blot.

B1: HisSUMO-PKP2 (His-tagged Plakophilin-2) (protein, UniProt Q99959 1-881)
chain: MAAPGAPAEYGYIRTVLGQQILGQLDSSSLALPSEAKLKLAGSSGRGGQTVKSLRIQEQVQQTLARKGRSSVGNGNLHRTSSVPEYVYNLHLVENDFVGGRSPVPKTYDMLKAGTTATYEGRWGRGTAQYSSQKSVEERSLRHPLRRLEISPDSSPERAHYTHSDYQYSQRSQAGHTLHHQESRRAALLVPPRYARSEIVGVSRAGTTSRQRHFDTYHRQYQHGSVSDTVFDSIPANPALLTYPRPGTSRSMGNLLEKENYLTAGLTVGQVRPLVPLQPVTQNRASRSSWHQSSFHSTRTLREAGPSVAVDSSGRRAHLTVGQAAAGGSGNLLTERSTFTDSQLGNADMEMTLERAVSMLEADHMLPSRISAAATFIQHECFQKSEARKRVNQLRGILKLLQLLKVQNEDVQRAVCGALRNLVFEDNDNKLEVAELNGVPRLLQVLKQTRDLETKKQITDHTVNLRSRNGWPGAVAHACNPSTLGGQGGRITRSGVRDQPDQHGLLWNLSSNDKLKNLMITEALLTLTENIIIPFSGWPEGDYPKANGLLDFDIFYNVTGCLRNMSSAGADGRKAMRRCDGLIDSLVHYVRGTIADYQPDDKATENCVCILHNLSYQLEAELPEKYSQNIYIQNRNIQTDNNKSIGCFGSRSRKVKEQYQDVPMPEEKSNPKGVEWLWHSIVIRMYLSLIAKSVRNYTQEASLGALQNLTAGSGPMPTSVAQTVVQKESGLQHTRKMLHVGDPSVKKTAISLLRNLSRNLSLQNEIAKETLPDLVSIIPDTVPSTDLLIETTASACYTLNNIIQNSYQNARDLLNTGGIQKIMAISAGDAYASNKASKAASVLLYSLWAHTELHHAYKKAQFKKTDFVNSRTAKAYHSLKD
With B1, the binding result was “no binding” in assay [1] and “binds” in assay [2].

B2: FLAG-tagged PKP2 (Plakophilin-2) (protein, UniProt Q99959 1-881)
chain: MAAPGAPAEYGYIRTVLGQQILGQLDSSSLALPSEAKLKLAGSSGRGGQTVKSLRIQEQVQQTLARKGRSSVGNGNLHRTSSVPEYVYNLHLVENDFVGGRSPVPKTYDMLKAGTTATYEGRWGRGTAQYSSQKSVEERSLRHPLRRLEISPDSSPERAHYTHSDYQYSQRSQAGHTLHHQESRRAALLVPPRYARSEIVGVSRAGTTSRQRHFDTYHRQYQHGSVSDTVFDSIPANPALLTYPRPGTSRSMGNLLEKENYLTAGLTVGQVRPLVPLQPVTQNRASRSSWHQSSFHSTRTLREAGPSVAVDSSGRRAHLTVGQAAAGGSGNLLTERSTFTDSQLGNADMEMTLERAVSMLEADHMLPSRISAAATFIQHECFQKSEARKRVNQLRGILKLLQLLKVQNEDVQRAVCGALRNLVFEDNDNKLEVAELNGVPRLLQVLKQTRDLETKKQITDHTVNLRSRNGWPGAVAHACNPSTLGGQGGRITRSGVRDQPDQHGLLWNLSSNDKLKNLMITEALLTLTENIIIPFSGWPEGDYPKANGLLDFDIFYNVTGCLRNMSSAGADGRKAMRRCDGLIDSLVHYVRGTIADYQPDDKATENCVCILHNLSYQLEAELPEKYSQNIYIQNRNIQTDNNKSIGCFGSRSRKVKEQYQDVPMPEEKSNPKGVEWLWHSIVIRMYLSLIAKSVRNYTQEASLGALQNLTAGSGPMPTSVAQTVVQKESGLQHTRKMLHVGDPSVKKTAISLLRNLSRNLSLQNEIAKETLPDLVSIIPDTVPSTDLLIETTASACYTLNNIIQNSYQNARDLLNTGGIQKIMAISAGDAYASNKASKAASVLLYSLWAHTELHHAYKKAQFKKTDFVNSRTAKAYHSLKD
As to B2, in assay [3], the binding result is given as “binds”.
